The values below come from patent US20050129614A1.

By UniProt entry, the sequences of proteins in these tests, tags left out. Where a name states a change or a piece, a line headed by the entry shows the natural chain unless it says otherwise.
UniProt O43557: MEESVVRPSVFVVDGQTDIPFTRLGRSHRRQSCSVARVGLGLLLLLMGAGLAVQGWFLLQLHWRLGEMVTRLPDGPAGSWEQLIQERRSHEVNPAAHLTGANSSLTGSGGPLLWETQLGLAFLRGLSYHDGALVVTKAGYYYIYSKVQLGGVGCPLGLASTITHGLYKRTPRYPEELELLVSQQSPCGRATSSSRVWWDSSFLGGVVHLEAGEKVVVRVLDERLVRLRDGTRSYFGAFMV

These are yes or no findings as the source states them, for the method shown. Some results given as binding are weak or reduced against the parent protein; the word gives no strength.

Assay [1] concerns the target TL5 polypeptide (human) (UniProt O43557). Description: phage display selection of scFvs.
Assay [2] shares this target. Description: phage display selection of scFvs (table title).

B1: L006C05 scFv (scFv)
scFv: QVQLQQSGAEVKKPGASVKVSCKASGYTFTSYYMHWVRQAPGQGLEWMGIINPSGGSTTYAQNFQGRVTMTRDTSTSTVYMELSSLRSEDTAVYYCARGVGAGNWFDPWGKGTMVTVSSGGGGSGGGGSGGGGSQSVLTQPASVSGSPGQSITISCTGTSSDVGGYNYVSWYQQHPGKAPELMIYEGSKRPSGVSNRFSGSKSGNTASLTISGLQAEDEADYYCSSYTTRSTRVFGGGTKLTVLG
With B1, the binding entry with TL5 polypeptide (human) [1] and in the assay with TL5 polypeptide (human) [2] was “binds” in each case.
